Reference: PMC7823470, “Arabidopsis Plant Natriuretic Peptide Is a Novel Interactor of Rubisco Activase” (Life, 2020)
No constants are given. Whether binding was seen depends on the method and setting. Some entries that bind do so weakly or less than the wild type. Sequences can lack the tags named with a protein.

Target: T1, purified recombinant N-terminally His-tagged rubisco activase (rRCA) (Arabidopsis thaliana) (UniProt P10896)
T1 sequence: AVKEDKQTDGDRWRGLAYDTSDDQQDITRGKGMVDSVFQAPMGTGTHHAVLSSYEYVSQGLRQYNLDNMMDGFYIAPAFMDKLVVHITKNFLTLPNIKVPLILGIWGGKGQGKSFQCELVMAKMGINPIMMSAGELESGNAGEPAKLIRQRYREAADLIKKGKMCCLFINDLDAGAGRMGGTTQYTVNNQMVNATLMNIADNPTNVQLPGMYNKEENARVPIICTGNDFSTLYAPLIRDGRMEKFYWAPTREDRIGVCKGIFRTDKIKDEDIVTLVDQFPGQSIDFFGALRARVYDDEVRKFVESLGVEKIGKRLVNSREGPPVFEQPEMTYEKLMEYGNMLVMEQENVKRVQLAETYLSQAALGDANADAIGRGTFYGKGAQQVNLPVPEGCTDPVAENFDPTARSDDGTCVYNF
Assay: SPR; His-tagged rRCA immobilised on an NTA sensor chip, pAtPNP-A or pScr injected at the same concentration, unmodified reference surface; Biacore T100, 20 °C; both purified

## YDPPYTRSACYGTQRETLVVGVKNNLWQNGRACG (peptide, UniProt Q9ZV52 33-66, biotin on the N-terminus; two cysteine residues forming a disulfide bond) [pAtPNP-A, N-terminally biotinylated AtPNP-A(33–66) peptide containing the active region of AtPNP-A]
  binding: binds
